Measurements published in US20010016194A1, “COMPOUNDS THAT INHIBIT THE BINDING OF RAF-1 OR 14-3-3 PROTEINS TO THE BETA CHAIN OF IL-2 RECEPTOR, AND PHARMACEUTICAL COMPOSITIONS CONTAINING SAME” (priority 1999, published 2001).
No constants are given. Whether binding was seen depends on the method and setting. Some binding calls cover weakened binding; strength is not graded here.

Sequences of proteins named here, by UniProt entry; tags and fusion partners are left off. A change or cut given only in a name is not applied to a line headed by its entry.
UniProt P14784: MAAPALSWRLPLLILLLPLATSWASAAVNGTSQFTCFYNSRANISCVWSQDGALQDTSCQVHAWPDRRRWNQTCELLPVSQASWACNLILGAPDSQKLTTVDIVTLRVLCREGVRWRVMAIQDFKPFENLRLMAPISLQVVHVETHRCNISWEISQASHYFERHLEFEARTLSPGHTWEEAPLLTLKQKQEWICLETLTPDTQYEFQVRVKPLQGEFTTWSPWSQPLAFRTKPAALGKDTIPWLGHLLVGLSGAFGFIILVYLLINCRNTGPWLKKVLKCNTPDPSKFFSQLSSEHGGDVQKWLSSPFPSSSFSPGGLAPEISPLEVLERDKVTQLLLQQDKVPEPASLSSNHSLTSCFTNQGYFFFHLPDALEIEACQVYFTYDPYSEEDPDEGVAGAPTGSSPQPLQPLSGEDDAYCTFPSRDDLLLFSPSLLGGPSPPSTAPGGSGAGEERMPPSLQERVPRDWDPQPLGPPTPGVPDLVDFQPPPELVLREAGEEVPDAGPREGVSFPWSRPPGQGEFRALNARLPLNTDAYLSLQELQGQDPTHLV

Experiments:
[1] = molecular target: (His)6-Raf-1 protein (UniProt P04049); assay: totally cell-free pull-down on anti-FLAG beads, anti-Raf-1 immunoblot
[2] = molecular target: (His)6-Raf-1 protein (UniProt P04049); assay: bacterial lysates mixed, anti-FLAG bead pull-down, immunoblot (FIG. 8c)

FLAG-HMK-IL-2Rβ chain cytoplasmic domain wild type fusion protein (from UniProt P14784 266-551) (receptor)
binding [1]: binds | binding [2]: binds
